The other results are listed elsewhere or left out.
Legend:
Test in all cases: log2 fold change, soluble protein after heating vs DMSO (PISA); higher = thermal stabilisation; K562 cells, 10 uM, 30 min; active = over 0.2 and 3.5 SD of the protein, either way, in both replicates (recomputed)
bafetinib = compound: Cc1ccc(NC(=O)c2ccc(CN3CC[C@H](N(C)C)C3)c(C(F)(F)F)c2)cc1Nc1nccc(-c2cncnc2)n1 [bafetinib]
Procedure, shortened: (§1)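 K562 cells (2×10^6 cells/mL) were treated with 10 μM compound for 30 min, and aliquots were heated for 3 min over 48°C-58°C. Pooled aliquots were extracted in PBS with 0.5% NP-40 at 4°C, and the supernatant after 21,000xg for 90 min was measured by TMTpro 16plex LC-MS/MS with channel sums equalised. Reported thermal stability, relative to control samples and from duplicates, is a log2 fold change.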

Protein sequences, listed by entry. Tags and fused reporters are not part of them. Lines headed by an entry give the natural chain unless they say otherwise; changes in a name come on top.
UniProt Q9Y5A7: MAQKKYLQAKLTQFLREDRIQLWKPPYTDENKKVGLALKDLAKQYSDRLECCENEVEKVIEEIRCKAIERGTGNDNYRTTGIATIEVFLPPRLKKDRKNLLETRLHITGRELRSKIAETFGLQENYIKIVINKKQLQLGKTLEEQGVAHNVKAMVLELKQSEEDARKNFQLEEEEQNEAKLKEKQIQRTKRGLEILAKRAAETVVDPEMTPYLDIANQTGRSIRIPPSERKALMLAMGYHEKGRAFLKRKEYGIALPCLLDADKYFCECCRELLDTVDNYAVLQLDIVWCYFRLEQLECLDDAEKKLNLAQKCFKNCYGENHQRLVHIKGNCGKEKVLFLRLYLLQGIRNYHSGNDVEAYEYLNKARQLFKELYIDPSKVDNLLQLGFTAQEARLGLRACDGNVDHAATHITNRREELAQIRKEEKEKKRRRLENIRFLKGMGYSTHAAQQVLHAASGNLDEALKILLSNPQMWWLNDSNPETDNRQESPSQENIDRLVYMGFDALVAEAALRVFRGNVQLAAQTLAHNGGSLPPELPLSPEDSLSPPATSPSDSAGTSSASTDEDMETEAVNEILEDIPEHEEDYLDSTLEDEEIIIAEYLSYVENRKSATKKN
UniProt Q32P28: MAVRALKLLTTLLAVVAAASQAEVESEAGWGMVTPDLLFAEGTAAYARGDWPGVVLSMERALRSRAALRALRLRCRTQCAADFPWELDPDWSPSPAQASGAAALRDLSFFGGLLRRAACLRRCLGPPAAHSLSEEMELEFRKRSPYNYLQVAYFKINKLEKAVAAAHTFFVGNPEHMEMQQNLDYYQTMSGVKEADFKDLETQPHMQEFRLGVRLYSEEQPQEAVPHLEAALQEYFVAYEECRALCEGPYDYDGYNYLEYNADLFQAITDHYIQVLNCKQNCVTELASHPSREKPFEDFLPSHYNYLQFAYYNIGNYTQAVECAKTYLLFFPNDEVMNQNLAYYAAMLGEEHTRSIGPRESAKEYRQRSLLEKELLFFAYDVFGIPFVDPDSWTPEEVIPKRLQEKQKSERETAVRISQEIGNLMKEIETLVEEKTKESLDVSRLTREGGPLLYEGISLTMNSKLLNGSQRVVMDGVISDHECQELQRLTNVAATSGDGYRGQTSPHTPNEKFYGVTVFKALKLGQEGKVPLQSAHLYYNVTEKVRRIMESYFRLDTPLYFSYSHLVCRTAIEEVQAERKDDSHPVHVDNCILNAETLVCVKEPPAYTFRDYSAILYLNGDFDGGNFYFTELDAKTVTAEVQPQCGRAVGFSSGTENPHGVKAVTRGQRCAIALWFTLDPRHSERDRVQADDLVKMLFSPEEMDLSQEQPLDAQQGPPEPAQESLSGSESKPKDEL
UniProt Q96RS6: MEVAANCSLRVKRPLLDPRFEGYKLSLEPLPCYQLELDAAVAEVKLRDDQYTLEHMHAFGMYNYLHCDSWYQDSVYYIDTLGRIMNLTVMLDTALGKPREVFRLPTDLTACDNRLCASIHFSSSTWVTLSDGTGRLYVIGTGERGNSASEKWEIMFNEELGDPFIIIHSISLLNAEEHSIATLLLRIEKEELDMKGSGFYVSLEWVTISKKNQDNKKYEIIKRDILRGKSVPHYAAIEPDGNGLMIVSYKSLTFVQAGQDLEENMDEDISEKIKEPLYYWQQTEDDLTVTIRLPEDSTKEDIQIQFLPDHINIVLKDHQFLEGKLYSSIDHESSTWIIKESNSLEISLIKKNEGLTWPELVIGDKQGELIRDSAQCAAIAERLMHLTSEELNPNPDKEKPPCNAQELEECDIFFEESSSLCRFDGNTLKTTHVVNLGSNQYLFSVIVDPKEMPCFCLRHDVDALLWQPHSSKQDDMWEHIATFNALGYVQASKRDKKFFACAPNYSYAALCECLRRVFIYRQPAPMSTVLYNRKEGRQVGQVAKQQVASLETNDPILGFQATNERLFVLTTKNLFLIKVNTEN
UniProt P07237: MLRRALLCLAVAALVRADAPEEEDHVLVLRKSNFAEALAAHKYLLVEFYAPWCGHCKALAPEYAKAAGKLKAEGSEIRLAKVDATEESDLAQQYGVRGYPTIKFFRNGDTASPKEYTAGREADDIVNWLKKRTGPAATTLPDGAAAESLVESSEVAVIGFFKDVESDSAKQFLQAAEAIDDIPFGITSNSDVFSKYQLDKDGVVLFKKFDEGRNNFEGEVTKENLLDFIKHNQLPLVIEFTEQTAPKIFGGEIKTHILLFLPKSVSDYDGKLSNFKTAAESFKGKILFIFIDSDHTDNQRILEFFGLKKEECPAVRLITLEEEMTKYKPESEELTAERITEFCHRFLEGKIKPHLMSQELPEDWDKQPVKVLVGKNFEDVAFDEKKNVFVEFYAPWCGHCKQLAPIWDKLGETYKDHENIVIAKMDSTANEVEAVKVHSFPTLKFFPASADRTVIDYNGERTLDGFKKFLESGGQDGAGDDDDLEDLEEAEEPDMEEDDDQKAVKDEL
UniProt P13674: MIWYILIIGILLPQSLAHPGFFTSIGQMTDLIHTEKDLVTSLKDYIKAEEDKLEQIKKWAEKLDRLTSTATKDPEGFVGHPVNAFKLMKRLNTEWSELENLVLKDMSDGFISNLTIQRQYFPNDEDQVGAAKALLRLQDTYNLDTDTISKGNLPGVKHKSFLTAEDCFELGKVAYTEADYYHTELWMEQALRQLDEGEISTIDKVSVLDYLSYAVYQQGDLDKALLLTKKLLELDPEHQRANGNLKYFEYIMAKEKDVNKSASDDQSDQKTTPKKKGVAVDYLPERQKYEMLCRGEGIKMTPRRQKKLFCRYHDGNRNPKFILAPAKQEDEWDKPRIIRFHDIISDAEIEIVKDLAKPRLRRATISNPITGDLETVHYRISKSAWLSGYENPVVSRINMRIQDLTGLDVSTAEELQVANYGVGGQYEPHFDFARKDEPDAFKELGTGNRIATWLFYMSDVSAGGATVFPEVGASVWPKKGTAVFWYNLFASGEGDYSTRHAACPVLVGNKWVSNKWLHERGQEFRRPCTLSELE
UniProt O60502: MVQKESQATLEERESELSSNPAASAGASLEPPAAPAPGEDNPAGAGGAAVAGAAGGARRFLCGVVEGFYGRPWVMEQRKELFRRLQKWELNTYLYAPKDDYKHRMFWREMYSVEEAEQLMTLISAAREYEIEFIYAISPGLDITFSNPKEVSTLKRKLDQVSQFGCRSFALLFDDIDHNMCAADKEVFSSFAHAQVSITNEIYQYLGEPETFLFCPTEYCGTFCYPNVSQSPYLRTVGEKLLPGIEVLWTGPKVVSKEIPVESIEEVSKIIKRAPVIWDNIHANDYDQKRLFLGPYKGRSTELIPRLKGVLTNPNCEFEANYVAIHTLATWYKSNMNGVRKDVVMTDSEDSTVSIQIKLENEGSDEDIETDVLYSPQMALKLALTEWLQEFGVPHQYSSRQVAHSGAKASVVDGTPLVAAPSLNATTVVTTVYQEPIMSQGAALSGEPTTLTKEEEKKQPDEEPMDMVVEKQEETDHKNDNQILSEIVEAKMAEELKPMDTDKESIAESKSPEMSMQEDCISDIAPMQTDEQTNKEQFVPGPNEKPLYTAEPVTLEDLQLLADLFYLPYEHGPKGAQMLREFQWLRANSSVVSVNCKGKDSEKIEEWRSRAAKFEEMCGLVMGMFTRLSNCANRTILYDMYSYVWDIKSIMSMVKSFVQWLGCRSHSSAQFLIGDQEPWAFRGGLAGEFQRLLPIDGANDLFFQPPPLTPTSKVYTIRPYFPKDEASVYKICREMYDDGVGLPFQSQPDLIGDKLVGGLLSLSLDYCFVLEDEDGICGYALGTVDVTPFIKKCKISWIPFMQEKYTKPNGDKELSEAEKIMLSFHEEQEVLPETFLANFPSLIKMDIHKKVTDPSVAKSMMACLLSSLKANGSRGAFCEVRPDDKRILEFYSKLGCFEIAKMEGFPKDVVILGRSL
UniProt Q8TB37: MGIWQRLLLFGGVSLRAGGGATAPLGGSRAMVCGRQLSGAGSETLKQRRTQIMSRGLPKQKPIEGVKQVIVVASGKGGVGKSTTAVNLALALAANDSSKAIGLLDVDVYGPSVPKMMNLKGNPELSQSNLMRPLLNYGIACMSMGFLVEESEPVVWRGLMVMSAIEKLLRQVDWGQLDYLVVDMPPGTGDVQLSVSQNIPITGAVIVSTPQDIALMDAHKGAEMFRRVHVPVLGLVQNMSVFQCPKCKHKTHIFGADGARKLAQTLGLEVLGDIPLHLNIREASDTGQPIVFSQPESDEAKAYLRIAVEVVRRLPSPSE

[1] = compound: Cc1cccc(CC(=O)N2CCc3c2ccc(-c2cn(C)c4ncnc(N)c24)c3F)n1
Procedure, shortened: as §1

nilotinib = compound: Cc1cn(-c2cc(NC(=O)c3ccc(C)c(Nc4nccc(-c5cccnc5)n4)c3)cc(C(F)(F)F)c2)cn1 [nilotinib]
Procedure, shortened: as §1

[2] = compound: Cc1nc(Nc2n[nH]c3c2CN(C(=O)N[C@H](CN(C)C)c2ccccc2)C3(C)C)c2sccc2n1
Procedure, shortened: as §1

dasatinib = compound: Cc1nc(Nc2ncc(C(=O)Nc3c(C)cccc3Cl)s2)cc(N2CCN(CCO)CC2)n1 [dasatinib]
Procedure, shortened: as §1

[3] = compound: Cc1ncc(-c2ccnc(Nc3ccc(S(C)(=O)=O)cc3)n2)n1C(C)C
Procedure, shortened: as §1

[4] = compound: Cn1cc(-c2ccc3c(c2)CCN3C(=O)Cc2cccc(C(F)(F)F)c2)c2c(N)ncnc21
Procedure, shortened: as §1

[5] = compound: Cn1cc(-c2ccc3nnc(C(F)(F)c4ccc5ncccc5c4)n3n2)cn1
Procedure, shortened: as §1

tipifarnib = compound: Cn1cncc1[C@@](N)(c1ccc(Cl)cc1)c1ccc2c(c1)c(-c1cccc(Cl)c1)cc(=O)n2C [tipifarnib]
Procedure, shortened: as §1

mubritinib = compound: FC(F)(F)c1ccc(/C=C/c2nc(COc3ccc(CCCCn4ccnn4)cc3)co2)cc1 [mubritinib]
Procedure, shortened: as §1

[6] = compound: NC(=O)Nc1cc(-c2cccc(F)c2)sc1C(=O)N[C@H]1CCCNC1
Procedure, shortened: as §1

[7] = compound: NC(=O)c1cnc(N[C@@H]2CCCC[C@@H]2N)nc1Nc1cccc(-n2nccn2)c1
Procedure, shortened: as §1

[8] = compound: NC1(c2ccc(-c3nc4ccn5c(=O)[nH]nc5c4cc3-c3ccccc3)cc2)CCC1
Procedure, shortened: as §1

[9] = compound: NCC(=O)Nc1ccc(-n2nc(C(F)(F)F)cc2-c2ccc3c(ccc4ccccc43)c2)cc1
Procedure, shortened: as §1

entinostat = compound: Nc1ccccc1NC(=O)c1ccc(CNC(=O)OCc2cccnc2)cc1 [entinostat]
Procedure, shortened: as §1

vorinostat = compound: O=C(CCCCCCC(=O)Nc1ccccc1)NO [vorinostat]
Procedure, shortened: as §1

citarinostat = compound: O=C(CCCCCCNC(=O)c1cnc(N(c2ccccc2)c2ccccc2Cl)nc1)NO [citarinostat]
Procedure, shortened: as §1

silmitasertib = compound: O=C(O)c1ccc2c(c1)nc(Nc1cccc(Cl)c1)c1ccncc12 [silmitasertib]
Procedure, shortened: as §1

[10] = compound: O=C1NC(=O)C(c2cnc3ccccn23)=C1c1cn2c3c(cc(F)cc13)CN(C(=O)N1CCCCC1)CC2
Procedure, shortened: as §1

[11] = compound: c1cc(OCCN2CCCCC2)cc(-c2n[nH]c3ccc(-c4nnc[nH]4)cc23)c1
Procedure, shortened: as §1

Measured: log2 fold change

NUB1 (UniProt Q9Y5A7)
inactive: bafetinib 0.047 | [1] 0.014 | nilotinib -0.327 | [2] -0.088 | dasatinib -0.041 | [3] -0.054 | [4] -0.028 | [5] -0.01 | tipifarnib -0.072 | mubritinib -0.028 | [6] -0.015 | [7] -0.028 | [8] -0.161 | [9] -0.05 | entinostat 0.041 | vorinostat 0.059 | citarinostat 0.162 | silmitasertib 0.163 | [10] 0.008 | [11] -0.019

NT5C3A (UniProt Q9H0P0)
inactive: bafetinib 0.133 | [1] 0.063 | nilotinib 0.081 | [2] -0.022 | dasatinib -0.037 | [3] -0.027 | [4] -0.034 | [5] -0.04 | tipifarnib -0.016 | mubritinib 0.271 | [6] -0.072 | [7] -0.007 | [8] -0.136 | [9] -0.006 | entinostat -0.019 | vorinostat 0.098 | citarinostat 0.08 | silmitasertib 0.047 | [10] 0.078 | [11] -0.085

P3H1 (UniProt Q32P28)
inactive: bafetinib 0.03 | [1] -0.018 | nilotinib 0.036 | [2] 0.069 | dasatinib 0.035 | [3] -0.043 | [4] -0.068 | [5] -0.034 | tipifarnib 0.073 | mubritinib -0.143 | [6] -0.02 | [7] -0.003 | [8] -0.04 | [9] 0.049 | entinostat 0.037 | vorinostat -0.013 | citarinostat 0 | silmitasertib 0.022 | [10] 0.003 | [11] -0.114

NUDCD1 (UniProt Q96RS6)
inactive: bafetinib -0.05 | [1] 0.049 | nilotinib -0.023 | [2] -0.031 | dasatinib -0.054 | [3] -0.005 | [4] 0.018 | [5] -0.011 | tipifarnib -0.042 | mubritinib 0.021 | [6] 0.018 | [7] -0.043 | [8] -0.131 | [9] -0.022 | entinostat 0.017 | vorinostat 0.043 | citarinostat 0.058 | silmitasertib -0.008 | [10] -0.028 | [11] -0.015

P4HB (UniProt P07237)
inactive: bafetinib -0.045 | [1] -0.044 | nilotinib -0.02 | [2] 0.006 | dasatinib 0.049 | [3] -0.023 | [4] -0.011 | [5] 0.026 | tipifarnib 0.075 | mubritinib -0.009 | [6] -0.004 | [7] 0.001 | [8] -0.021 | [9] 0.007 | entinostat -0.013 | vorinostat -0.043 | citarinostat -0.018 | silmitasertib -0.005 | [10] -0.049 | [11] -0.044

P4HA1 isoform 2 (UniProt P13674)
inactive: bafetinib 0.009 | [1] -0.002 | nilotinib -0.005 | [2] 0.026 | dasatinib -0.122 | [3] -0.047 | [4] -0.081 | [5] 0.032 | tipifarnib 0.068 | mubritinib -0.072 | [6] -0.016 | [7] 0.019 | [8] -0.062 | [9] 0.092 | entinostat -0.049 | vorinostat -0.08 | citarinostat -0.071 | silmitasertib 0.016 | [10] -0.004 | [11] -0.152

OGA (UniProt O60502)
inactive: bafetinib -0.013 | [1] -0.006 | nilotinib -0.001 | [2] 0.014 | dasatinib -0.052 | [3] -0.024 | [4] 0.029 | [5] 0.01 | tipifarnib 0.002 | mubritinib 0.057 | [6] -0.042 | [7] -0.037 | [8] -0.073 | [9] -0.049 | entinostat -0.036 | vorinostat 0.008 | citarinostat 0.005 | silmitasertib -0.001 | [10] -0.064 | [11] 0.052

NUBPL (UniProt Q8TB37)
inactive: bafetinib -0.076 | [1] -0.005 | nilotinib -0.034 | [2] -0.155 | dasatinib 0.074 | [3] 0.055 | [4] 0.103 | [5] 0.028 | tipifarnib -0.021 | mubritinib 0.086 | [6] 0.101 | [7] 0.014 | [8] 0.017 | [9] -0.036 | entinostat 0.028 | vorinostat -0.034 | citarinostat 0.1 | silmitasertib 0.069 | [10] 0.03 | [11] -0.013

Reference: the supplement of paper PMC10849652
